Measurements: paper PMC7791120

Assays:
[1] = molecular target: T1, TRIB2-FLAG (WT-TRIB2) (UniProt Q92519); assay: co-IP; conventional co-IP of exogenous TRIB2 and PCBP2 constructs from HEK-293T cells, reciprocal, immunoblot
T1 sequence: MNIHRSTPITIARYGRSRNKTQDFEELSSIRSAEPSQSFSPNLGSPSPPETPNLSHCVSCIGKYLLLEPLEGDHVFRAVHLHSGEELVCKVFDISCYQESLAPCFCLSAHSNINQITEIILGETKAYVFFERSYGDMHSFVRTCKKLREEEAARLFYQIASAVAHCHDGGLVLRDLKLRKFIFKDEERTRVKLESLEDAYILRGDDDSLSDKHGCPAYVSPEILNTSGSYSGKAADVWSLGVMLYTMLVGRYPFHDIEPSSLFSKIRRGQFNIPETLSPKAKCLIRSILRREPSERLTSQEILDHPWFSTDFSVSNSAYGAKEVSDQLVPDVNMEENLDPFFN

[2] = molecular target: T2, purified TRIB2 protein (ab186094, Abcam) (UniProt Q92519); assay: co-IP; in vitro co-IP: 1 µg purified protein held by 5 µg antibody on protein A/G magnetic beads, then 1 µg of the other purified protein at 4 °C overnight in 400 µl binding buffer (25 mM Tris-HCl pH 7.2, 150 mM NaCl, 5 mM MgCl2, 1% NP-40, 20 mM imidazole); immunoblot; reciprocal; both purified
T2 sequence: T1 sequence

[3] = molecular target: T3, Tribbles homolog 2 (TRIB2), endogenous (human (endogenous in Bel-7402)) (UniProt Q92519); assay: proximity ligation; Duolink in situ PLA on cells fixed in 4% paraformaldehyde, primary antibodies to the two proteins; Bel-7402 and SMMC-7721 named for PCBP2 with PSMB5
T3 sequence: T1 sequence

truncated PCBP2 PΔ1 (domain or fragment)
binding [1]: binds

purified GSK3 protein (ab60863, Abcam)
binding [2]: no binding (tested: 1 µg of each protein in 400 µl)

truncated PCBP2 PΔ5 (domain or fragment)
binding [1]: binds

truncated PCBP2 PΔ3 (domain or fragment)
binding [1]: binds

truncated PCBP2 PΔ4 (domain or fragment)
binding [1]: binds

truncated PCBP2 PΔ6 (domain or fragment)
binding [1]: no binding

E3 βTrCP, endogenous
binding [3]: binds

truncated PCBP2 PΔ2 (domain or fragment)
binding [1]: binds

These are yes or no findings as the source states them, for the method shown. In cells and extracts the contact can be indirect. For some assays here: A result given as binding can be weak or reduced; the word gives no strength. For some assays here: Tags and fused reporters may be left off the sequences shown.
